# Data published in the supplement of paper PMC12823440, “Inhibitors supercharge kinase turnover through native proteolytic circuits” (Nature, 2025).
# Sequences of proteins named here, by UniProt entry; tags and fusion partners are left off.
# UniProt Q05397, whole entry, looked up: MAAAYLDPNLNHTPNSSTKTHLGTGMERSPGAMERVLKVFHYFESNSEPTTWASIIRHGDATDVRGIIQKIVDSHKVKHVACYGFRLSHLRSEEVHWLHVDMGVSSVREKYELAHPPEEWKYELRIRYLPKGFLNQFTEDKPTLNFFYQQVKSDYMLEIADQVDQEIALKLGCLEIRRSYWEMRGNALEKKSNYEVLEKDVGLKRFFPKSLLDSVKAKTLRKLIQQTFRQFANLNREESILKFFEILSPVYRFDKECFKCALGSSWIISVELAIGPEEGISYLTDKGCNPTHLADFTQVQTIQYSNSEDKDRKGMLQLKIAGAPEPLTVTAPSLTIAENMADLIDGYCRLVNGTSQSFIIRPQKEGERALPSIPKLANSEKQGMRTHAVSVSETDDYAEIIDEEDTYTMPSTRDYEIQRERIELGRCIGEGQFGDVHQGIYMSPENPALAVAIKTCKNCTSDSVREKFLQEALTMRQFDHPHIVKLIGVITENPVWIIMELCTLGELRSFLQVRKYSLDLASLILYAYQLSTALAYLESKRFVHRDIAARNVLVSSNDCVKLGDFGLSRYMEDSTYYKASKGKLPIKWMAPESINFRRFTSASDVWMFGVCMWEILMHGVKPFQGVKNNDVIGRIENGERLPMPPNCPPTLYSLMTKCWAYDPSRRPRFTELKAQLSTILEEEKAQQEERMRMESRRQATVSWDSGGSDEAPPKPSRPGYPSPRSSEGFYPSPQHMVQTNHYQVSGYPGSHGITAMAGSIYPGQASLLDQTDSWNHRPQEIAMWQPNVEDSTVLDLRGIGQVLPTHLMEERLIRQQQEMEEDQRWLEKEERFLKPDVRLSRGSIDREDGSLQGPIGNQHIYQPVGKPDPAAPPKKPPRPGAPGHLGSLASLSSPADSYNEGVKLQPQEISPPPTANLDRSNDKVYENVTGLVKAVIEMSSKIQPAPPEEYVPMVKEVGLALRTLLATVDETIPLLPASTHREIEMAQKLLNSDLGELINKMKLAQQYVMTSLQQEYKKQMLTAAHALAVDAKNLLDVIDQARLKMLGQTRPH
# Counter-ions that a name gives are not always drawn. The list shows a part of the results. The calls rarely recur for the same compound in another form.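 Kinases were expressed as nanoluciferase fusions in K562 cells and luminescence was read every 4 h between 2 and 18 h as percent of control, DMSO set to 100% and a positive control to 0%. A time point counts as decreased when the signal drops significantly (2 sigma). The hit call is the authors' own, does not follow from the count of time points alone, and its rule is not shown.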
# Target: PRKCA (UniProt P17252)
# Experiment: number of time points (of 5) at which kinase-Nluc abundance scored as decreased, DMSO-normalised (count); higher = more persistent destabilization
# Details: K562; 2-18 h
row,Structure (SMILES),number of time points
1,O=c1cc(-c2ccc(O[C@@H]3O[C@H](CO)[C@@H](O)[C@H](O)[C@H]3O)cc2)oc2cc(O)c([C@@H]3O[C@H](CO)[C@@H](O)[C@H](O)[C@H]3O[C@@H]3OC[C@H](O)[C@H](O)[C@H]3O)c(O)c12 [Vaccarin] (10 µM),0
2,Nc1ccc(Sc2nc3ccccc3s2)c(Cl)c1 [KRAS inhibitor-9] (10 µM),0
3,COc1ccc2cc1Oc1ccc(cc1)C[C@H]1c3cc(c(OC)cc3CCN1C)Oc1c(O)c(OC)cc3c1[C@H](C2)N(C)CC3 [Fangchinoline] (2.5 µM),0
4,Nc1nccc(Oc2ccc3c(C(=O)Nc4cccc(C(F)(F)F)c4)cccc3c2)n1 (10 µM),0
5,CN1C(=O)N[C@@H](Cc2c[nH]c3c(Cl)cccc23)C1=O [Necrostatin 2 (S enantiomer)] (10 µM),0
6,Cc1ncc(-c2cc(F)c(O)c(F)c2)cc1-c1cc(F)c(O)c(F)c1 (10 µM),0
7,N=C(NC(=N)N1CCCC1)Nc1ccc(OC(F)(F)F)cc1 (10 µM),0

# Rewritten bar-delimited: part of the list above
row | Structure (SMILES) | number of time points
2 | Nc1ccc(Sc2nc3ccccc3s2)c(Cl)c1 [KRAS inhibitor-9] (10 µM) | 0
3 | COc1ccc2cc1Oc1ccc(cc1)C[C@H]1c3cc(c(OC)cc3CCN1C)Oc1c(O)c(OC)cc3c1[C@H](C2)N(C)CC3 [Fangchinoline] (2.5 µM) | 0

# Target: PTK2 (UniProt Q05397)
# Experiment: as above
# Details: K562; 2-18 h
row,Structure (SMILES),number of time points
1,COc1ccc(Br)c(C=O)c1O [6-Bromo-2-hydroxy-3-methoxybenzaldehyde] (10 µM),0
2,O=C1C=CC2=C3c4cc(O)c(O)cc4CC3(O)COC2=C1O (stereo unspecified) [Hematein] (10 µM),0
3,Cc1cccc(CC(=O)N2CCc3c2ccc(-c2cn(C)c4ncnc(N)c24)c3F)n1 (10 µM),3
4,COCCOc1cnc2ccn([C@H](C)c3nnc4c(F)cc(-c5cnn(C)c5)cn34)c(=O)c2c1 (10 µM),0
5,Cn1cc(C2=C(c3ccc(Cl)cc3Cl)C(=O)NC2=O)c2ccccc21 (10 µM),0
6,COc1cc(N2CCC(N3CCN(C)CC3)CC2)ccc1Nc1ncnc(Nc2ccccc2S(=O)(=O)C(C)C)n1 (10 µM),0
7,COc1c(Nc2ncc(Cl)c(N[C@H]3[C@@H](C(N)=O)[C@@H]4C=C[C@H]3C4)n2)ccc2c1CC[C@@H](N1CCOCC1)CC2 (10 µM),0
8,Cc1ccc(NC(=O)N2CCN(c3nc(N)nc4sc(-c5cccnc5)nc34)CC2)cc1 [PI4KIII beta inhibitor 3] (10 µM),0
9,CNc1cc2c(Nc3cccc(Br)c3)ncnc2cn1 (10 µM),0
10,CC(C)n1c(CO)nc2c(F)cc(-c3nc(Nc4ccc(CN5CCNCC5)cn4)ncc3F)cc21 (10 µM),3
11,CN1CCC(Nc2ccc(C(=O)Nc3cc(-c4ccc5c(c4)OCO5)[nH]n3)cc2)CC1 (10 µM),0
12,CNC(=O)CN1CCC(Oc2cc3c(Nc4cccc(Cl)c4F)ncnc3cc2OC)CC1 [Sapitinib] (10 µM),0
13,O=C(O)c1c[nH]c2cc(Cl)c(-c3ccc(C4(O)CCC4)cc3)cc12 (10 µM),0
14,COc1cc(N2CCC(O)CC2)ccc1Nc1nc(Nc2ccccc2S(=O)(=O)C(C)C)c2[nH]cnc2n1 (10 µM),0
15,O=c1c(O)c(-c2ccc(O)c(O)c2)oc2cc(O)c(O)c(O)c12 [Quercetagetin] (10 µM),0
16,Cc1ncsc1-c1ccc(CNC(=O)[C@@H]2C[C@@H](O)CN2C(=O)[C@@H](NC(=O)COCCOc2ccc(-c3cc(Nc4ccc(OC(F)(F)F)cc4)ncn3)cc2)C(C)(C)C)cc1 (2.5 µM),1
17,COc1cc(Nc2ccnc3ccc(Br)cc23)cc(OC)c1OC (2.5 µM),0
18,Cc1ccc2c(NS(=O)(=O)c3ccccc3Cl)cccc2c1Oc1ncccc1-c1ccnc(N[C@H]2CCCNC2)n1 (2.5 µM),0
19,CC(C)c1cc2c(c(O)c1O)[C@@]13CCCC(C)(C)[C@@H]1C[C@@H]2OC3=O [Carnosol] (2.5 µM),0
20,Cc1nc2c(NCc3cccc(S(C)(=O)=O)c3)nccn2c1-c1ccc(O)c(F)c1 (10 µM),0
21,CC(C)n1cnc2c(Nc3cccc(Cl)c3)nc(N[C@H]3CCCC[C@@H]3N)nc21 (2.5 µM),0
22,O=c1cc(N2CCOCC2)oc2c(-c3cccc4c3sc3ccccc34)cccc12 (10 µM),0
23,C[C@@H]1COC(Nc2ccc3ncnc(Nc4ccc(OCc5nccs5)c(Cl)c4)c3c2)=N1 [Varlitinib] (10 µM),5
24,Cc1cncc2cccc(S(=O)(=O)N3CCCNC[C@@H]3C)c12 [H-1152 (dihydrochloride)] (10 µM),0
